# Publication PMC6477676, “Staufen2-mediated RNA recognition and localization requires combinatorial action of multiple domains”
# No constants are given. Whether binding was seen depends on the method and setting.
# T1: full-length mouse Staufen2 (mStau2 FL) (mouse), Q8CJ67
# T1 chain: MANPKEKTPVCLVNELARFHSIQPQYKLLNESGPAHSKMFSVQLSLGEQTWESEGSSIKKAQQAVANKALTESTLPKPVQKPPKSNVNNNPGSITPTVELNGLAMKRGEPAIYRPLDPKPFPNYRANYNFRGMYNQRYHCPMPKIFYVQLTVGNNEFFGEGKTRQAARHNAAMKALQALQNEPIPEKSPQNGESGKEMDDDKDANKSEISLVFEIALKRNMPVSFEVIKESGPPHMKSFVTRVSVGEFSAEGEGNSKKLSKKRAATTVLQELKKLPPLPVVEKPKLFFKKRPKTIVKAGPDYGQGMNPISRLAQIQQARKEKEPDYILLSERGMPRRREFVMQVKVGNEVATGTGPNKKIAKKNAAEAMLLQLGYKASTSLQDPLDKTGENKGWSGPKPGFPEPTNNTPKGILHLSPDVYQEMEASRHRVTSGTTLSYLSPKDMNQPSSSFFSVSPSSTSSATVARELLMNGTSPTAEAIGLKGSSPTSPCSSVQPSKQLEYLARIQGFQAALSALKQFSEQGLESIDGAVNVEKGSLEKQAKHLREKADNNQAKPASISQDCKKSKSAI
# B1: full-length mouse Staufen2 (mStau2 FL), Q8CJ67 1-570 (protein)
# chain: T1 chain
# Molecular target: T1, full-length mouse Staufen2 (mStau2 FL) …
# Experiment: SEC-SLS (static light scattering after SEC); SEC on 10/300 Superdex200 Increase, 7 °C, flow rate 0.5 mL per min, 270 Dual Detector and VE3580 RI Detector, calibrated with BSA; both purified
# Conditions: remark: other sources report otherwise
binder,measurement,value
B1,binding,no binding
